Values from PubChem BioAssay AID1259405 (NCATS, 2018)

- Test: 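Mouse-designed siRNAs used to find CHO productivity engineering targets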 (primary screen)
- Cells: Chinese hamster CHO-K1 ovary cells with stable secreted eGFP expression
- Reagent: single siRNA against mouse genes, 0.8 pmol siRNA per well (2 µl of 400 nM stock)
- Timing: 3 days
- Read-out: 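Per-well intracellular GFP measured by laser scanning cytometry, plus viability from ATP luminescence, each relative to plate median of non-targeting control wells, in %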
- Reading the numbers: GFP, % of control: higher = more GFP per well, higher productivity; viability (ATP), % of control: higher = more viable cells (more ATP)
- Hit rule: 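a knock-down is called active if GFP reaches 120% or more of non-targeting control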
Here is a random part of about 50,000 deposited reagents. In the full data, about 4,000 (8%) are marked active. 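Mouse siRNA library applied to hamster cells; one well for each siRNA.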 Unmarked entries are inactive. The numbers tell different reagents against one gene apart.

Mfsd6l #1 → GFP, % of control = 95.1; viability (ATP), % of control = 123
Mfsd6l #2 → GFP, % of control = 94.9; viability (ATP), % of control = 85.1
Mfsd6l #3 → GFP, % of control = 158 (active); viability (ATP), % of control = 140
Usp48 #1 → GFP, % of control = 57.2; viability (ATP), % of control = 38.6
Usp48 #2 → GFP, % of control = 110; viability (ATP), % of control = 80.4
Usp48 #3 → GFP, % of control = 102; viability (ATP), % of control = 93.2
Lonp1 #1 → GFP, % of control = 53.3; viability (ATP), % of control = 71.2
Lonp1 #2 → GFP, % of control = 74.2; viability (ATP), % of control = 78
Lonp1 #3 → GFP, % of control = 69.9; viability (ATP), % of control = 68.1
Atp2b3 #1 → GFP, % of control = 93.2; viability (ATP), % of control = 59.6
Atp2b3 #2 → GFP, % of control = 62.8; viability (ATP), % of control = 79.4
Atp2b3 #3 → GFP, % of control = 42.9; viability (ATP), % of control = 41
Nfe2l3 #1 → GFP, % of control = 94.9; viability (ATP), % of control = 85.9
Nfe2l3 #2 → GFP, % of control = 68.8; viability (ATP), % of control = 77
Nfe2l3 #3 → GFP, % of control = 88.7; viability (ATP), % of control = 117
Elmo1 #1 → GFP, % of control = 63.2; viability (ATP), % of control = 53.4
Elmo1 #2 → GFP, % of control = 64.1; viability (ATP), % of control = 66.4
Elmo1 #3 → GFP, % of control = 53.5; viability (ATP), % of control = 78.1

Limited to “viability (ATP), % of control”, for 3 of the entries above:
Usp48 #1 = 38.6
Usp48 #2 = 80.4
Usp48 #3 = 93.2
